From article PMC3088666 come the findings set out here.

The chains behind the UniProt entries cited, without tags or fusion partners.
UniProt Q02577: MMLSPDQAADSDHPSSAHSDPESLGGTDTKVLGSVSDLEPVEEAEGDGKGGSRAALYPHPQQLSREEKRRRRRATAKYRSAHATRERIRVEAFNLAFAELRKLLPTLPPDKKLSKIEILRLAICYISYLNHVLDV

The target of assay [1] is T1, Myc-HES1 (rat) (UniProt Q04666).
T1 sequence: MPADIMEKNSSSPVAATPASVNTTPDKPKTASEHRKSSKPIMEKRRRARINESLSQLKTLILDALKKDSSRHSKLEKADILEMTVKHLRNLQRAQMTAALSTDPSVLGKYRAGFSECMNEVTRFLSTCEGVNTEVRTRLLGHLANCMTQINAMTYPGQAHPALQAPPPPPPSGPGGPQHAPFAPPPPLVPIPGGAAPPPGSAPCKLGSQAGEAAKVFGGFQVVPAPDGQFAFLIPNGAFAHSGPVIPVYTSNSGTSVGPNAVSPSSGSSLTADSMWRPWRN
Description: co-IP; Neuro2a cells co-transfected, lysed 48 h later in 25 mM Tris-HCl pH 8.0, 137 mM NaCl, 2.7 mM KCl, 1% Triton X-100; 2 mg lysate immunoprecipitated with polyclonal anti-FLAG or anti-Myc tag antibody overnight at 4°C, protein G-Sepharose; immunoblot. For orientation: Immunoblotting shows a protein as a band on a membrane.

The target in assay [2] is T1, Myc-HES1 (rat). Description: pull-down; in vitro pull-down: radio-labeled in vitro translated FLAG-HEN2 incubated with lysate of Neuro2a cells transfected with Myc-HES1; immunoprecipitated with polyclonal anti-Myc tag antibody (control: normal rabbit serum); SDS-PAGE, autoradiography.
The target of a further assay is T2, FLAG-LMO3 (human) (UniProt Q8TAP4).
T2 sequence: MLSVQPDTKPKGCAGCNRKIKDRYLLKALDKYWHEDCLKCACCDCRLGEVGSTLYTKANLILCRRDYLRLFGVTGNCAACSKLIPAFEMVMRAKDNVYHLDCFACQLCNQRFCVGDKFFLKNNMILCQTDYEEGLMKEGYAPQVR
Description: co-IP; Neuro2a cells co-transfected, lysed 48 h later in 25 mM Tris-HCl pH 8.0, 137 mM NaCl, 2.7 mM KCl, 1% Triton X-100; 2 mg lysate immunoprecipitated with polyclonal anti-FLAG or anti-Myc tag antibody overnight at 4°C, protein G-Sepharose; immunoblot.

The target of a further assay is FLAG-HEN2 (human) (UniProt Q02577). The assay is described as above.

Results are given in words; binding and its absence hold for the method and conditions named. In cells and extracts the contact can be indirect. Some results given as binding are weak or reduced against the parent protein; the word gives no strength. Tags and fused reporters may be left off the sequences shown.

Take FLAG-HEN2 (from UniProt Q02577 1-135): the binding entry in the assay with Myc-HES1 (rat) [1] is “binds”.

Take “Radio-labeled FLAG-HEN2 (from UniProt Q02577 1-135)”: the binding entry with Myc-HES1 (rat) [2] is listed as “binds”.

B1: Myc-HES1 (protein, UniProt Q04666 1-281)
chain: MPADIMEKNSSSPVAATPASVNTTPDKPKTASEHRKSSKPIMEKRRRARINESLSQLKTLILDALKKDSSRHSKLEKADILEMTVKHLRNLQRAQMTAALSTDPSVLGKYRAGFSECMNEVTRFLSTCEGVNTEVRTRLLGHLANCMTQINAMTYPGQAHPALQAPPPPPPSGPGGPQHAPFAPPPPLVPIPGGAAPPPGSAPCKLGSQAGEAAKVFGGFQVVPAPDGQFAFLIPNGAFAHSGPVIPVYTSNSGTSVGPNAVSPSSGSSLTADSMWRPWRN
In the case of B1, the binding entry in the assay with FLAG-LMO3 (human) and in the assay with FLAG-HEN2 (human) was “binds” throughout.
